Results as given in the supplement of paper PMC8256030.
Where “and” joins values, the source holds several entries; their conditions need not be identical. Equal values may be shown once. Where a name gives a salt, the structure may show the parent alone. The list shows a part of the results. Single values are uncertain here, since repeats match poorly.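 HEK293T cells were given each compound shortly before transfection with a reporter in which red mCherry is followed by the SARS-CoV-2 frameshift element and then GFP in the −1 frame, so GFP appears only after frameshifting.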

Assays:
[1] = system: SARS-CoV-2 -1 PRF reporter mCherry-FSE-GFP(-1); assay: mCherry (red) intensity as percent of control; higher = higher upstream reporter expression; settings: 10 µM; 24 h; HEK293T
[2] = system: SARS-CoV-2 -1 PRF reporter mCherry-FSE-GFP(-1); assay: percent effect, decrease of GFP/mCherry ratio (-1 PRF reporter) relative to controls; higher = stronger frameshift inhibition; settings: 10 µM; 24 h; HEK293T

SMILES	mCherry [1]	percent effect [2]
C[C@]12CCC(=O)C=C1CC[C@@H]1[C@@H]2[C@@H](O)C[C@@]2(C)[C@H]1CC[C@]2(O)C(=O)COP(=O)(O)O	98.3%	-0.453%
CC1(C)[C@@H]2CC[C@@]1(C)C(=O)C2	82.5%	-5.06%
CC(Oc1ccccc1)C(=O)N[C@@H]1C(=O)N2[C@@H]1SC(C)(C)[C@@H]2C(=O)O (some centres not stated)	123%	0.724%
O=C(O)[C@H]1/C(=C/CO)O[C@@H]2CC(=O)N21	103% and 89.9%	-0.551% and -12%
COc1cc(C(=O)NS(=O)(=O)c2ccccc2C)ccc1Cc1cn(C)c2ccc(NC(=O)OC3CCCC3)cc12 [Zafirlukast]	77.4%	-1.85%
COc1ccc(OC)c(C(O)CNC(=O)CN)c1 (configuration not stated) [midodrine]	97.1%	0.26%
Nc1cc(-c2ccncc2)c[nH]c1=O [amrinone]	105% and 82.9%	-3.99% and 1.31%
CO/N=C(\C(=O)N[C@@H]1C(=O)N2C(C(=O)O)=C(COC(C)=O)CS[C@H]12)c1ccco1 [cefuracetime]	85.6%	1.16%
CCc1cccc(NC2CC3CCC2C3)c1 (configuration not stated)	52.7%	-13.6%
C[C@]12C=CC(=O)C=C1C(Cl)=C[C@@H]1[C@@H]2[C@@H](O)C[C@@]2(C)[C@H]1CC[C@]2(O)C(=O)CO [cloprednol]	79.6%	-1.79%
CO/N=C(\C(=O)N[C@@H]1C(=O)N2C(C(=O)OC(C)OC(C)=O)=C(COC(N)=O)CS[C@H]12)c1ccco1 (some centres not stated)	81.9%	-1.06%
CCCCOC(=O)c1ccccc1Nc1cccc(C(F)(F)F)c1 [ufenamate]	95.4%	-3.71%
O=c1[nH]c2ccccc2c(=O)n1CCCN1CCN(c2ccccc2)CC1 [pelanserin]	95.1%	-1.78%
CCC[C@@H]1C[C@@H](C(=O)N[C@@H]([C@H]2O[C@H](SC)[C@H](O)[C@@H](O)[C@H]2O)[C@H](C)Cl)N(C)C1 [Clindamycin·HCl]	219%	4.51%
Cc1ccc(=O)n(-c2ccccc2)c1 [pirfenidone]	111%	-0.706%
Nc1ccc(S(=O)(=O)NC(=O)c2ccccc2)cc1 [sulfabenzamide]	88.6%	-5.77%

Three entries from above, sorted by SMILES length, falling:
SMILES	mCherry [1]	percent effect [2]
CO/N=C(\C(=O)N[C@@H]1C(=O)N2C(C(=O)OC(C)OC(C)=O)=C(COC(N)=O)CS[C@H]12)c1ccco1 (some centres not stated)	81.9%	-1.06%
O=C(O)[C@H]1/C(=C/CO)O[C@@H]2CC(=O)N21	103% and 89.9%	-0.551% and -12%
Cc1ccc(=O)n(-c2ccccc2)c1 [pirfenidone]	111%	-0.706%

Following part

SMILES	mCherry [1]	percent effect [2]
CC(C)(C)[C@]1(O)CCN2C[C@H]3c4ccccc4CCc4cccc(c43)[C@@H]2C1 [(+)-Butaclamol·HCl]	76.8%	2.5%
CC(C)C1O[C@H](CN)[C@@H](CN)O1.O=C([O-])CC(=O)[O-].[Pt+2] [eptaplatin]	107%	-5.72%
N=C(N)NC(=O)c1nc(Cl)c(N)nc1N	87.9%	-4.66%
O=c1[nH]c2ccccc2n1C1CCN(CCOc2ccccc2)CC1 [oxiperomide]	118%	0.922%
CCOc1ccc2ccccc2c1C(=O)N[C@@H]1C(=O)N2[C@@H]1SC(C)(C)[C@@H]2C(=O)O [nafcillin]	94%	1.73%
CC(C)(CO)[C@@H](O)C(=O)NCCC(=O)O [Pantothenic acid]	105%	3.18%
CCCc1nn(C)c2c(=O)[nH]c(-c3cc(S(=O)(=O)N4CCN(C)CC4)ccc3OCC)nc12 [Sildenafil]	72.6%	-1.6%
CC(=O)O[C@@H]1C[C@@H]2CC[C@@]1(C)C2(C)C	92.7%	1.62%
Cc1c2oc3c(C)ccc(C(=O)N[C@@H]4C(=O)N[C@H](C(C)C)C(=O)N5CCC[C@H]5C(=O)N(C)CC(=O)N(C)[C@@H](C(C)C)C(=O)O[C@@H]4C)c3nc-2c(C(=O)N[C@@H]2C(=O)N[C@H](C(C)C)C(=O)N3CCC[C@H]3C(=O)N(C)CC(=O)N(C)[C@@H](C(C)C)C(=O)O[C@@H]2C)c(N)c1=O	16.5%	-19.6%
CC(C)C[C@H](NC(=O)[C@@H](O)[C@H](N)Cc1ccccc1)C(=O)O [ubenimex]	104%	-4%
CN1CCCCC1CCN1c2ccccc2Sc2ccc([S+](C)[O-])cc21 (configuration not stated) [Mesoridazine besylate]	74.7%	-1.2%
CC(C)[C@H](N)C(=O)OCCOCn1cnc2c(=O)nc(N)[nH]c21	153%	3.94%
C=C1/C(=C\C=C2/CCC[C@]3(C)[C@@H]([C@H](C)CC[C@@H](O)C(C)C)CC[C@@H]23)C[C@@H](O)C[C@@H]1O [tacalcitol]	47.7%	1.79%
CC1(C)NC(=O)N(c2ccc([N+](=O)[O-])c(C(F)(F)F)c2)C1=O [nilutamide]	74.1%	-3.77%
C[C@@H]1CCC[C@H](C)N1NC(=O)c1ccc(Cl)c(S(N)(=O)=O)c1 [clopamide]	91.9%	-1.58%
